# Among all 390,000 compounds or so, about 4,000 (1%) were called active. This list was built around the results that the source calls inconclusive (neither active nor inactive); the mix of calls is not that of the screen. Calls follow the shape of the dose curve; as a rule, active = well fitted inhibition curve with a large enough effect; inconclusive = small, poorly fitted or top-dose-only effect, or another doubt; inactive = no such curve, though single readings can be large or run the other way. Potencies beside an inconclusive call are fits to weak or partial responses and may not hold up.
# Sequences of proteins named here, by UniProt entry; tags and fusion partners are left off. A change or cut given only in a name is not applied to a line headed by its entry.
# UniProt Q9UNA4: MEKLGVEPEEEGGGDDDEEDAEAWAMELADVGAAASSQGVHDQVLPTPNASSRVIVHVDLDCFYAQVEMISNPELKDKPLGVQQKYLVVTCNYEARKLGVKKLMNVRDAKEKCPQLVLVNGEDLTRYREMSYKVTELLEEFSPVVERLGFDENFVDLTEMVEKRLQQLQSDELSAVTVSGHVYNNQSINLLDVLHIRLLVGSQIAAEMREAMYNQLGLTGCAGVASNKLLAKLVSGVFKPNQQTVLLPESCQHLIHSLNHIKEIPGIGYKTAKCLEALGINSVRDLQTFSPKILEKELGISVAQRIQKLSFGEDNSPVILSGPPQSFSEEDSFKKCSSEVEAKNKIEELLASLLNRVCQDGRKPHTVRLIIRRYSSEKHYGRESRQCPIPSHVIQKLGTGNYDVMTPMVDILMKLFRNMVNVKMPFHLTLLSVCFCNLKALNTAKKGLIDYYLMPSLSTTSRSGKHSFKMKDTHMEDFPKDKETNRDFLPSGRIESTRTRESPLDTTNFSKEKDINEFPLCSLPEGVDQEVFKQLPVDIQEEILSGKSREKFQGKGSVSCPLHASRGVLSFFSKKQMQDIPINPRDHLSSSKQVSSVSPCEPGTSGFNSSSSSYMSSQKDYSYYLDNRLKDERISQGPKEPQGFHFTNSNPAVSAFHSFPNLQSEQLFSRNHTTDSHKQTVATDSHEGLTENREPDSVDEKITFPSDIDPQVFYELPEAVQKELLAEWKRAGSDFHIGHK
# Molecular target: DNA polymerase iota (Homo sapiens) (UniProt Q9UNA4)
# Experiment: qHTS for Inhibitors of Polymerase Iota
# Conditions: Pol iota fluorescent replication assay, 10 min; series mostly up to 115 µM; activity, negative = inhibition: at the top concentration
# In short: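 Pol iota at 10 nM preincubated 15 min with compounds at room temperature; reaction started with fluorescent substrate, 50 nM final. Fluorescence read kinetically at 0 and 10 min; buffer-only wells as negative control.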
# Potency is read from the fitted curve at half-maximal effect.
SMILES,Potency,"activity, negative = inhibition"
COc1ccc(-n2c(SCC(=O)Nc3ccc(C(=O)O)cc3)nnc2-c2ccccc2)cc1OC,"inconclusive: 28.2 µM [inhibitor, partial curve, poor fit]",–
O=C(NCCN1C(=O)S/C(=C/c2cccnc2)C1=O)c1cccs1,"inconclusive: 50.1 µM [inhibitor, single point]",–
CC1CN(CC(O)COc2ccccc2C(C)(C)C)CC(C)O1 (stereo unspecified),"inconclusive: 3.16 µM [inhibitor, single point]",–
COc1ccc(-n2c(=O)c3c4c(sc3n(CC(=O)Nc3cc(C)[nH]n3)c2=O)CCC4)c(OC)c1,active: 79.4 µM,–
c1csc(C2Nc3cccc4cccc(c34)N2)c1,"inconclusive: 6.31 µM [inhibitor, partial curve]",–
CC(=O)Nc1ccc(S(=O)(=O)NCC(=O)OCC(=O)Nc2sccc2C(N)=O)cc1,"inconclusive: 70.8 µM [inhibitor, partial curve, poor fit]",–
COc1ccc(OC)c(C2C(C(C)=O)=C(O)C(=O)N2c2ccc(O)cc2)c1 (stereo unspecified),"inconclusive: 10 µM [inhibitor, partial curve, poor fit]",–
O=c1c(Cl)c(NCCCO)cnn1-c1nc2ccccc2[nH]1,"inconclusive: 15.8 µM [inhibitor, partial curve, poor fit]",–
CC(C)C(=O)Nc1ccccc1C(=O)OCc1cc(=O)n2nc(C3CC3)sc2n1,–,inactive: 31.1%
OC1(c2ccc(Br)cc2)CCNCC1,"inconclusive: 89.1 µM [inhibitor, single point]",–
Cc1c(Cl)cccc1NC(=O)c1cc(-c2cccc(Cl)c2)on1,"inconclusive: 89.1 µM [inhibitor, single point]",–
O=C(Nc1cccc(C(F)(F)F)c1)c1cc2c(=O)c3ccccc3oc2nc1C(F)(F)F,"inconclusive: 31.6 µM [inhibitor, single point]",–
OC(COc1ccc(Cl)cc1)CN1CCN(c2ccccc2)CC1 (stereo unspecified),"inconclusive: 63.1 µM [inhibitor, partial curve, poor fit]",–
Cc1c(C(=O)NCCc2ccccc2)oc2ccc(S(=O)(=O)N3CCOCC3)cc12,"inconclusive: 39.8 µM [inhibitor, partial curve, poor fit]",–
Cn1c(CNC(=O)c2ccccc2F)nnc1SCC(=O)c1ccccc1,–,inactive: 28.5%
Cc1oc2c(cc(NS(=O)(=O)c3ccc(Br)cc3)c3ccccc32)c1C(=O)OCc1ccccc1,"inconclusive: 89.1 µM [inhibitor, single point]",–
COC(=O)c1ccccc1NC(=O)c1cc2ccccn2n1,–,inactive: 17.6%
CN(C)CCCNCCCCNC(=O)/C=N/O,"inconclusive: 35.5 µM [inhibitor, single point]",–
CCCC(=O)Oc1c(Sc2ccc(C)cc2)c(C)nn1-c1ccccc1,"inconclusive: 15.8 µM [inhibitor, full curve, poor fit]",–
CCC(C)C(=O)Nc1cc(OC)c(OC)cc1C(=O)O (stereo unspecified),"inconclusive: 89.1 µM [inhibitor, single point]",–
CC(=O)Oc1cc2c(cc1Cl)C(c1cccs1)CC1(CC(C)(C)NC(=S)N1)O2 (stereo unspecified),–,inactive: 39.7%
CC1Cc2cc(S(=O)(=O)CCC(=O)Nc3cccc(F)c3)ccc2N1C(=O)C1CC1 (stereo unspecified),–,inactive: 19.7%

SMILES,Potency,"activity, negative = inhibition"
CC(=O)c1c2c3c(cccc3n(C)c1=O)C(=O)c1ccccc1-2,"inconclusive: 35.5 µM [inhibitor, single point]",–
COc1ccc(NC(=O)c2sc3nc(C)c(C(=O)Nc4ccc(C)cc4C)c(-c4sccc4C)c3c2N)cc1,–,inactive: 19.9%
NC(=O)/C(=C/c1ccco1)C(N)=S,"inconclusive: 15.8 µM [inhibitor, partial curve]",–
Cc1ccc(S(=O)(=O)N(C)c2ccc(OCC(=O)Nc3cc(C(=O)O)ccc3Cl)cc2)cc1,"inconclusive: 39.8 µM [inhibitor, partial curve, poor fit]",–
C=CCOc1c(CNC2CCCC2)cc(Cl)cc1OC,"inconclusive: 89.1 µM [inhibitor, partial curve, poor fit]",–
Cc1cccc(C)c1NC1=NC(C)(C)N=C(N)N1,"inconclusive: 39.8 µM [inhibitor, single point]",–
COc1ccc(OC)c(NC(=O)c2cc(-c3cc(C)ccc3O)n[nH]2)c1,active: 25.1 µM,–
CN1CCN(c2cc(=O)n(Cc3ccc(F)cc3)c(=O)[nH]2)CC1,–,inactive: 0.467%
CCCSc1nc(C)c(CC(=O)OCC)c(=O)[nH]1,"inconclusive: 89.1 µM [inhibitor, single point]",–
CCOC(=O)c1c(NC(=O)Nc2ccc(F)cc2)sc2c1CCN(C)C2,"inconclusive: 28.2 µM [inhibitor, single point]",–
CCCCN1C(=O)C(O)=C(C(C)=O)C1c1ccc(OC)cc1OC (stereo unspecified),"inconclusive: 14.1 µM [inhibitor, full curve, poor fit]",–
COc1cc(-c2nc(-c3ccc(NC(=O)c4ccc5c(c4)OCO5)cc3)no2)cc(OC)c1OC,"inconclusive: 22.4 µM [inhibitor, partial curve, poor fit]",–
CC(C)(C)NC(=S)NC(=O)C12CCC3CC(CC(C3)C1)C2,–,inactive: 0.153%
CC(=O)c1ccc(N2CCN(c3ccc(C(N)=O)cc3[N+](=O)[O-])CC2)cc1,–,inactive: 14%
Cc1cc(C)c(OCCOCCn2c(-c3ccc(Cl)cc3)nc3ccccc3c2=O)c(C)c1,–,inactive: 5.88%
CSc1nc(SCCO)c2sc3nc(-c4ccco4)c4c(c3c2n1)CC(C)(C)OC4,active: 22.4 µM,–
CCN(CC)S(=O)(=O)c1ccc(NC2c3ncccc3C(=O)N2Cc2ccccc2)cc1 (stereo unspecified),"inconclusive: 10 µM [inhibitor, partial curve, poor fit]",–
COc1cccc(NC(=O)CSc2c3c(nc4ccccc24)CCCC3)c1,"inconclusive: 79.4 µM [inhibitor, single point]",–
Nc1nc(NC(=O)c2cccs2)nn1-c1ccccc1,"inconclusive: 11.2 µM [inhibitor, single point]",–
COC(=O)Cc1c(O)ccn(CCc2c[nH]c3ccc(OC)cc23)c1=O,–,inactive: -17.5%
Cc1ccc(S/C=C\C(=O)c2ccccc2)cc1,active: 79.4 µM,–
Cc1cc(C)cc(SCc2noc(C(=O)NCC3CC3)c2C(=O)NCC2CC2)c1,"inconclusive: 31.6 µM [inhibitor, single point]",–

# Part of the list above in order of molecular weight, descending.
SMILES,Potency,"activity, negative = inhibition"
Cc1cc(C)c(OCCOCCn2c(-c3ccc(Cl)cc3)nc3ccccc3c2=O)c(C)c1,–,inactive: 5.88%
CC(=O)Nc1ccc(S(=O)(=O)NCC(=O)OCC(=O)Nc2sccc2C(N)=O)cc1,"inconclusive: 70.8 µM [inhibitor, partial curve, poor fit]",–
CC1Cc2cc(S(=O)(=O)CCC(=O)Nc3cccc(F)c3)ccc2N1C(=O)C1CC1 (stereo unspecified),–,inactive: 19.7%
CCOC(=O)c1c(NC(=O)Nc2ccc(F)cc2)sc2c1CCN(C)C2,"inconclusive: 28.2 µM [inhibitor, single point]",–
CN1CCN(c2cc(=O)n(Cc3ccc(F)cc3)c(=O)[nH]2)CC1,–,inactive: 0.467%
c1csc(C2Nc3cccc4cccc(c34)N2)c1,"inconclusive: 6.31 µM [inhibitor, partial curve]",–

# The listing continues.

SMILES,Potency,"activity, negative = inhibition"
CCC1(C)Cc2c(sc3c2c2ncnn2c2nnc(SCC(=O)NCc4ccco4)n32)CO1 (stereo unspecified),"inconclusive: 11.2 µM [inhibitor, full curve, poor fit]",–
CC1=C(C(=O)Nc2ccc(F)c(F)c2)C(c2cccs2)NC(=S)N1 (stereo unspecified),"inconclusive: 89.1 µM [inhibitor, single point]",–
CC(C)c1ccc(OC(=O)NCCO)cc1,"inconclusive: 50.1 µM [inhibitor, partial curve, poor fit]",–
O=C(Nc1ccccc1C(F)(F)F)N1CC=C(c2c[nH]c3ccccc23)CC1,"inconclusive: 100 µM [inhibitor, partial curve, poor fit]",–
C#CCOCCOCCOCCNc1nc(N2CCN(C(=O)CCCCCCCCCCNC(=O)[C@H](CCCCN)n3cc(CCO)nn3)CC2)nc(N2CCN(C(=O)CCCCCCCCCCNC(=O)[C@H](CCCN=C(N)N)n3cc(C[C@@H](C)CC)nn3)CC2)n1,"inconclusive: 5.01 µM [inhibitor, full curve, poor fit]",–
CC(C)(C)Sc1ccc(N)nc1,"inconclusive: 5.01 µM [inhibitor, full curve, poor fit]",–
CCCCCCCCCCCCCCCCCC(=O)OC(CC(=O)O)C[N+](C)(C)C (stereo unspecified),–,inactive: -5.08% [at 58.9 µM]
COc1ccccc1NC(=O)C1CCCN(c2ncnc3onc(-c4ccc(F)cc4)c23)C1 (stereo unspecified),–,inactive: 2.67%
O=S(=O)(c1ccc(Cl)cc1)n1nnc2ccccc21,"inconclusive: 25.1 µM [inhibitor, single point]",–
Cc1ccc(C(=O)OCC(=O)c2ccc(CC(=O)N3CCOCC3)s2)cc1C,active: 22.4 µM,–
O=C1N/C(=C\c2ccc(O)cc2)C(=O)c2ccccc21,active: 20 µM,–
Cc1nc(S/C(=C\c2ccc(-c3ccc(C(=O)O)c(Cl)c3)o2)C(=O)O)n[nH]1,active: 3.16 µM,–
CC1CCc2c(c3ccccc3n2C(=O)CCl)C1 (stereo unspecified),"inconclusive: 8.91 µM [inhibitor, partial curve, poor fit]",–
COc1cc(O)cc2cc3c(c(O)c12)C(=O)CC(C)(O)O3 (stereo unspecified),"inconclusive: 15.8 µM [inhibitor, partial curve, poor fit]",–
CC(=O)c1ccc(NC(=O)CC2Oc3ccc(C)cc3NC2=O)cc1 (stereo unspecified),–,inactive: -12.9%
Cc1ccnc(Nc2nc(-c3ccc(O)c(O)c3)cs2)c1,"inconclusive: 70.8 µM [inhibitor, partial curve, poor fit]",–
O=C(CN1CCN(C(c2ccccc2)c2ccccc2)CC1)NC(=O)NCc1ccco1,"inconclusive: 14.1 µM [inhibitor, partial curve]",–
CC(C)CSC1=NSC2=NC(=O)/C(=C\c3coc4ccccc4c3=O)C(=N)N12,"inconclusive: 15.8 µM [inhibitor, full curve, poor fit]",–
Nc1cc(Nc2ccccc2)c2nonc2c1[N+](=O)[O-],"inconclusive: 79.4 µM [inhibitor, partial curve, poor fit]",–
Cc1nn2c(=O)cc(COC(=O)c3cccc(NC(=O)c4ccc(F)cc4)c3)nc2s1,–,inactive: -13.3%
CC(=O)Nc1ccc(S(=O)(=O)N2CCN(c3cc(C(F)(F)F)ccn3)CC2)cc1,"inconclusive: 89.1 µM [inhibitor, partial curve, poor fit]",–
O=C(CCC(=O)c1cccs1)OCC(=O)N1CCN(C(=O)c2ccco2)CC1,"inconclusive: 112 µM [inhibitor, partial curve, poor fit]",–

# — PubChem BioAssay AID588590 (National Center for Advancing Translational Sciences (NCATS), 2011)
